Experimental data as given in the supplement of paper PMC7666118.
The other results are listed elsewhere or left out.

Molecular target: HSP90AA1 (UniProt P07900)
Test: dose-dependent thermal stabilisation call (2D-TPP, DLPTP, 10% FDR) (binary (1 = stabilised)); higher = stabilised by the compound
Conditions: system: HL-60 intact cells; concentration range 0.04-10 µM

## COc1ccc(Cn2ccc3ccc(C(=O)NO)cc32)cc1
  dose-dependent thermal stabilisation call: inactive: 0
